Results are given in words; binding and its absence hold for the method and conditions named. In cells and extracts the contact can be indirect. Here binding means that the protein was enriched with, or labelled near, the bait; the list need not be complete. Tags and fused reporters may be left off the sequences shown.

The chains behind the UniProt entries cited, without tags or fusion partners.
UniProt Q13620: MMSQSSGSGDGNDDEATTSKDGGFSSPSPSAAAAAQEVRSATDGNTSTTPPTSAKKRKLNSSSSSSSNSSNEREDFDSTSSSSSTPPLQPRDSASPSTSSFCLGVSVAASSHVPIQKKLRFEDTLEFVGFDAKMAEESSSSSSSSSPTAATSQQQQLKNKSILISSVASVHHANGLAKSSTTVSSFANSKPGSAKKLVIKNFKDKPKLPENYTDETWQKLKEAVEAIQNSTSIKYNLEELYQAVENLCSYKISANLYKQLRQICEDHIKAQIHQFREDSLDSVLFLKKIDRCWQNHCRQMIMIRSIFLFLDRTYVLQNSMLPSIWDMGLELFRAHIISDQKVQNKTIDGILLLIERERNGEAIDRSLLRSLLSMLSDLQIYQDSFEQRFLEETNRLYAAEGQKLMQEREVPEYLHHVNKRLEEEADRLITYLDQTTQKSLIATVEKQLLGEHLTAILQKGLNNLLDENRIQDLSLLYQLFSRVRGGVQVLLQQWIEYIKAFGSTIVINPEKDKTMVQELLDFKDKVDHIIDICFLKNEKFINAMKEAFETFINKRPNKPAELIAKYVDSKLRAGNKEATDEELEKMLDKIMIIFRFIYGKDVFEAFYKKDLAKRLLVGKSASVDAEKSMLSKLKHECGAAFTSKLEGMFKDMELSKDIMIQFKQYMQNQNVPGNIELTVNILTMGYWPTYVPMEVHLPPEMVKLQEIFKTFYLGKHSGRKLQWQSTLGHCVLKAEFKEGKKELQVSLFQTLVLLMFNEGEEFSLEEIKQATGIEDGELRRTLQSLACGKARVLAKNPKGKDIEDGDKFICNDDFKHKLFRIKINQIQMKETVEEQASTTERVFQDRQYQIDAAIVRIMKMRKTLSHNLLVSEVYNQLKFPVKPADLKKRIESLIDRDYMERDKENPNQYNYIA
UniProt Q7Z6Z7: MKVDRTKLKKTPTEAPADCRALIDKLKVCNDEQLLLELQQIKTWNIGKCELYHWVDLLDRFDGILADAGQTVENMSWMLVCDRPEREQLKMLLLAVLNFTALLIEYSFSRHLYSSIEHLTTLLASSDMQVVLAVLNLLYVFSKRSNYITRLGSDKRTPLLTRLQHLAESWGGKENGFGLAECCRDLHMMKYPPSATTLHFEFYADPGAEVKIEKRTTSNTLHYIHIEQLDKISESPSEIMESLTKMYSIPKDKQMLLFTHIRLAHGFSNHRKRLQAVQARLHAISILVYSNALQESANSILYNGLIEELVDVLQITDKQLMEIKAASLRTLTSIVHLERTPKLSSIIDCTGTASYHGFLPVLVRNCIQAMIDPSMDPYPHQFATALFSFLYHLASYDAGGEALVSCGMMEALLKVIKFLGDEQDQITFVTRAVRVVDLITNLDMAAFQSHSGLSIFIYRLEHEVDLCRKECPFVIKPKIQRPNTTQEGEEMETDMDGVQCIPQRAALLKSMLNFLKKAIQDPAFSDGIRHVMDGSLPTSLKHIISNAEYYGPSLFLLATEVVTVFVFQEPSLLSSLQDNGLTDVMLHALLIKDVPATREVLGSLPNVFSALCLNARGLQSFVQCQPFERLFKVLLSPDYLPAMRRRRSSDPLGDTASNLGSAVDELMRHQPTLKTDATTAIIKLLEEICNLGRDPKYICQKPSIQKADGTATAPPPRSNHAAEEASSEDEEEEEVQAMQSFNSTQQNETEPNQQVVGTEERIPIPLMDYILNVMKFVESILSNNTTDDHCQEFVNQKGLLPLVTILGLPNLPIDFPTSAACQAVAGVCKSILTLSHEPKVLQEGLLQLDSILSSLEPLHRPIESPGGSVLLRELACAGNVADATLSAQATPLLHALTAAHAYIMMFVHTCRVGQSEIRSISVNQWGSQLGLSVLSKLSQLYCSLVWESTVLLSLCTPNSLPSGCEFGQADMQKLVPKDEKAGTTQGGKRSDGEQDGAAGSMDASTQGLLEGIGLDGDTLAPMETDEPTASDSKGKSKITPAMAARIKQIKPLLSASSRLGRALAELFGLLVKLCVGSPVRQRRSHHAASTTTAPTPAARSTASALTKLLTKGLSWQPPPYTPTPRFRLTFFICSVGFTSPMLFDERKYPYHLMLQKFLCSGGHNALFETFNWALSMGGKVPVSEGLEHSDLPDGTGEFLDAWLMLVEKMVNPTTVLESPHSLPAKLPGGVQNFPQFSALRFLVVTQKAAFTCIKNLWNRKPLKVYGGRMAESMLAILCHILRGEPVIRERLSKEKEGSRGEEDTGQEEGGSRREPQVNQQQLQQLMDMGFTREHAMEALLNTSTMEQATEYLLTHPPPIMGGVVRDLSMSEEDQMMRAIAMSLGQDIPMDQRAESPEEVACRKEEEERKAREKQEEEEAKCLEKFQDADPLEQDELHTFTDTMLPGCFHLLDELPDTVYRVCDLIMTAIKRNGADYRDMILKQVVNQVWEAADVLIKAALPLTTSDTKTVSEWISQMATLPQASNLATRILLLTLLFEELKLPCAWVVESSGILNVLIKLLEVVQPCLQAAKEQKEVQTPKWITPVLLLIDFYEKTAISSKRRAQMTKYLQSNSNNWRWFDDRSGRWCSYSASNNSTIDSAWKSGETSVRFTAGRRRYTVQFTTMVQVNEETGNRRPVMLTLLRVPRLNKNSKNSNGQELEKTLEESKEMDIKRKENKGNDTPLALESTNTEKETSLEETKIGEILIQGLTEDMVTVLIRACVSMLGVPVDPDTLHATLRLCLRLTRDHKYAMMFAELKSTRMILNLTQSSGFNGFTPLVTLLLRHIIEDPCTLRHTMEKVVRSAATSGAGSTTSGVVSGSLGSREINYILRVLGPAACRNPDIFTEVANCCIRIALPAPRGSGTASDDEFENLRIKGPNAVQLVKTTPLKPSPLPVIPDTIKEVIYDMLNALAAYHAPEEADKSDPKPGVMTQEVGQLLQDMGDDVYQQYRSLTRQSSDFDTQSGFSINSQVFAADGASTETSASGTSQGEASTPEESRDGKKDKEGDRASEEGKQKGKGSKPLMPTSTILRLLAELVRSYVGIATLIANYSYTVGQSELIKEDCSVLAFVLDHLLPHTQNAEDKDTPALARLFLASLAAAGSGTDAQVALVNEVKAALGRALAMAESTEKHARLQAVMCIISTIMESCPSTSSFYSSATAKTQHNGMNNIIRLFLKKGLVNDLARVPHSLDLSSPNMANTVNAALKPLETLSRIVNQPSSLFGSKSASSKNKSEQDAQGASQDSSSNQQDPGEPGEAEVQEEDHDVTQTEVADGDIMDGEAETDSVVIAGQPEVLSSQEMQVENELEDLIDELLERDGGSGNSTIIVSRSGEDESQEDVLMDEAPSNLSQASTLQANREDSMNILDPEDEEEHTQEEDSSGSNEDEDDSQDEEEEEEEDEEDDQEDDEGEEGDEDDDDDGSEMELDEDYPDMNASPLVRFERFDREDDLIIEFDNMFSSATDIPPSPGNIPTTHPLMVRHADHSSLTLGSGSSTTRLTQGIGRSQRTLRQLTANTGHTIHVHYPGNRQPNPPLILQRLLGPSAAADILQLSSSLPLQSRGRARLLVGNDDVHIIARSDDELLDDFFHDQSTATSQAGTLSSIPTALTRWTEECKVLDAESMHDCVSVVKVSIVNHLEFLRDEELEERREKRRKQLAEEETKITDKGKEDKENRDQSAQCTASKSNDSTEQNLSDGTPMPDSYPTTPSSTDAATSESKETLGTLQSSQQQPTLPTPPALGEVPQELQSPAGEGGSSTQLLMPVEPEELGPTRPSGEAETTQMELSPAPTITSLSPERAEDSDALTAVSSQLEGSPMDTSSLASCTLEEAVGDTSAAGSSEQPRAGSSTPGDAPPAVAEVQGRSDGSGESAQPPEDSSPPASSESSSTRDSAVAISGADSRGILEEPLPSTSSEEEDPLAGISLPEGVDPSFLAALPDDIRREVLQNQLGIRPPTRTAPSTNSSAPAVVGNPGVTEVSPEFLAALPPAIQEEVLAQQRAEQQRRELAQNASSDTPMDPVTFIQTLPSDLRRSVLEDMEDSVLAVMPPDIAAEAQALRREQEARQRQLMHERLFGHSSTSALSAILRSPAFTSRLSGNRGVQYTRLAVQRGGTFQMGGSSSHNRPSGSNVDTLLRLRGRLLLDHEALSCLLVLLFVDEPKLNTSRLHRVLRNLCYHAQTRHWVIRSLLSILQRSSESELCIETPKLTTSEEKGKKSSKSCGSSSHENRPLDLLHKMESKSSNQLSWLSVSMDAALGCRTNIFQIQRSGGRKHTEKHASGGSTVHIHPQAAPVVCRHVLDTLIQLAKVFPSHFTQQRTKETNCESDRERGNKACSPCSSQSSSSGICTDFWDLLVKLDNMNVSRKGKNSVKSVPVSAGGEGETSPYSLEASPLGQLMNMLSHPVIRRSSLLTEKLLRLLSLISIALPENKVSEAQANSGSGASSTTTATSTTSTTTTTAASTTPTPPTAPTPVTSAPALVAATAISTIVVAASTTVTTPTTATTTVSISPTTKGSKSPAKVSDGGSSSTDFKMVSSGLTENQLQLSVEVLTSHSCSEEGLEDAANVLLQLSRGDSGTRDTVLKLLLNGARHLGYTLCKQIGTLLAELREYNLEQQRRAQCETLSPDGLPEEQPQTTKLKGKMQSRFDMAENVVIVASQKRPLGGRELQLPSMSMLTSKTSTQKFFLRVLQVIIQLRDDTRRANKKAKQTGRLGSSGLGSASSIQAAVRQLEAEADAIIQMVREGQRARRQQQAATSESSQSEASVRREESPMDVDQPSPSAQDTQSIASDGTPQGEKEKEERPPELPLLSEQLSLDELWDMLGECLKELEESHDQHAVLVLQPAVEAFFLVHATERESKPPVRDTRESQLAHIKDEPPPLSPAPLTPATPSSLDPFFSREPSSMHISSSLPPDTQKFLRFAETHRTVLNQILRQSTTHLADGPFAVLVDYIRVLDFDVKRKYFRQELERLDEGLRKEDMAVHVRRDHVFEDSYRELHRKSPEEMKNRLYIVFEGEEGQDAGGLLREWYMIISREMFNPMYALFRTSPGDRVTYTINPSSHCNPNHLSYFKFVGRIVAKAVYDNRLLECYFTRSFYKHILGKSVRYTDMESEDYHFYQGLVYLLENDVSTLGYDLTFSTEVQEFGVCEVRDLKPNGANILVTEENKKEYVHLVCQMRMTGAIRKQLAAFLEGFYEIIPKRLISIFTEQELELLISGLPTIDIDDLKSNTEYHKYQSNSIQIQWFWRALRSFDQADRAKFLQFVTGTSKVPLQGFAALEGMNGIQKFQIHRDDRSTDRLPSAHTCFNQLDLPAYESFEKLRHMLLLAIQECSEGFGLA
UniProt P19474: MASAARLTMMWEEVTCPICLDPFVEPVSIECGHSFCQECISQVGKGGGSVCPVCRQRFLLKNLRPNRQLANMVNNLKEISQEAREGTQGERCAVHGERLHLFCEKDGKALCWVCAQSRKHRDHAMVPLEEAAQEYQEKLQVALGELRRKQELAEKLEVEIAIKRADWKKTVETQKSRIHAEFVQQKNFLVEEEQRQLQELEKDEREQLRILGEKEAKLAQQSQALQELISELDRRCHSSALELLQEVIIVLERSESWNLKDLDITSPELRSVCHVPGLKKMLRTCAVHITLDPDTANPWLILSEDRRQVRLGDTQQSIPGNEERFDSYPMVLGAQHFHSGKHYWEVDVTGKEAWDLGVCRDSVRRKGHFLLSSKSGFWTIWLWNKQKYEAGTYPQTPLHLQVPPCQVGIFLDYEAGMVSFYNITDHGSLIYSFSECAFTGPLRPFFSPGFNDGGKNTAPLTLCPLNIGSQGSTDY

The source of these data is article PMC8144412.

The assay concerns the target T1, 3xFlag-PPDPF (293T cells) (human) (UniProt Q9H3Y8).
T1 sequence: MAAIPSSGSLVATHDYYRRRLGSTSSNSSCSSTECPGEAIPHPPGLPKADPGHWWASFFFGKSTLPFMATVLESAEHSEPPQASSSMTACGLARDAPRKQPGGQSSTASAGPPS
The experiment in a line: affinity purification with mass spectrometry; mass spectrometry analysis using 293T cells expressing 3xFlag-PPDPF.

Regarding CUL4B (from UniProt Q13620 1-913), the binding result is reported as “binds”.

As for HUWE1 (from UniProt Q7Z6Z7 1-4374), the binding entry is given as “binds”. Take TRIM21 (from UniProt P19474 1-475): the binding result is “binds”.
